Results: patent publication US20190256559A1, “PEPTIDOMIMETIC MACROCYCLES AND USES THEREOF” (AILERON THERAPEUTICS, INC., priority 2015, published 2019)
For at least one compound, name, drawing or mass did not settle the structure. Where a SMILES comes first, the peptide text is derived from it. Bridges are numbered along the chain shown (N, C = ends). [ ]: non-standard residue; d: D form. R8 = C=CCCCCCC[C@@](C)(N)C(=O)O; S5 = C=CCCC[C@](C)(N)C(=O)O

Test system: hematologic cancer cell lines with wild-type p53
Experiment: Multiplexed cytotoxicity assay: cell proliferation/cytotoxicity (relative cell count), 72 h, cell lines with wild-type p53
Conditions: read-out: EC50 (cytotoxicity); all eleven p53 WT (6 lymphoma and 5 leukemia) hematologic cancer cell lines

## CC(=O)N[C@@H](CC(C)C)C(=O)N[C@H](C(=O)N[C@@H](Cc1ccccc1)C(=O)N[C@]1(C)CCCCCC/C=C/CCC[C@@](C)(C(=O)N[C@@H](C)C(=O)N[C@@H](C)C(=O)N[C@@H](C)C(=O)N[C@@H](C)C(=O)N[C@@H](C)C(=O)N[C@H](C)C(N)=O)NC(=O)[C@H](CC(C)C)NC(=O)[C@H](CCC(N)=O)NC(=O)[C@H](C)NC(=O)[C@H](Cc2c[nH]c3ccccc23)NC(=O)[C@H](Cc2ccc(O)cc2)NC(=O)[C@H](CCC(=O)O)NC1=O)[C@@H](C)O [peptide 1] (Ac-LTF[R8]EYWAQL[S5]AAAAA[dA]-NH2; staple (E) 4-11)
  EC50: < 600 nM
